Laboratory results taken from publication PMC5824486.
No constants are given. Whether binding was seen depends on the method and setting. Binding seen in cells or lysates may run through a third protein. Some entries that bind do so weakly or less than the wild type.

Amino acid sequences for entries named in this document (tags omitted).
UniProt Q92826: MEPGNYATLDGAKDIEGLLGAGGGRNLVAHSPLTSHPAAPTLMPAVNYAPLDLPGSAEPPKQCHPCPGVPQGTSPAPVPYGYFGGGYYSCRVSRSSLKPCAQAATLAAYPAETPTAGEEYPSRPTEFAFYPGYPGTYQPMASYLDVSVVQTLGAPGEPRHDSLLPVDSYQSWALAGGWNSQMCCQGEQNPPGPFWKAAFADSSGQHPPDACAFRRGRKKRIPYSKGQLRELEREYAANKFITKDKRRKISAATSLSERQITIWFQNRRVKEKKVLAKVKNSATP
UniProt P11142: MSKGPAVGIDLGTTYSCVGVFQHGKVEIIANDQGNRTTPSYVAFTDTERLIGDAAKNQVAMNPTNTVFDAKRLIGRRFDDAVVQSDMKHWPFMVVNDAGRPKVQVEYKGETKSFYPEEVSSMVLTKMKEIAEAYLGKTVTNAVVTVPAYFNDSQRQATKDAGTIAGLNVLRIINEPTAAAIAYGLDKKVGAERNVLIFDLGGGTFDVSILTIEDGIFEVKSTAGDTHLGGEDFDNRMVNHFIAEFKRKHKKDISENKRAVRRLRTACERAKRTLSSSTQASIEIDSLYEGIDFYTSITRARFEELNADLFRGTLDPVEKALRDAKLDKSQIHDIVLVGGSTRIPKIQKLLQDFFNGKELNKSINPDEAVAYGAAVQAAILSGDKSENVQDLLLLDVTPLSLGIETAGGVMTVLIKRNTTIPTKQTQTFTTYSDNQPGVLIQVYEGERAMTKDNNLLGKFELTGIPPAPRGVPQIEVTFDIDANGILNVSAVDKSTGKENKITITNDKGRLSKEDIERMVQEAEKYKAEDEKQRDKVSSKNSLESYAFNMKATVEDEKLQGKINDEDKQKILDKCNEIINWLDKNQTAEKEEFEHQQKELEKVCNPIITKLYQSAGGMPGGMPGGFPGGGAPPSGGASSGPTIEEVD
UniProt Q09472: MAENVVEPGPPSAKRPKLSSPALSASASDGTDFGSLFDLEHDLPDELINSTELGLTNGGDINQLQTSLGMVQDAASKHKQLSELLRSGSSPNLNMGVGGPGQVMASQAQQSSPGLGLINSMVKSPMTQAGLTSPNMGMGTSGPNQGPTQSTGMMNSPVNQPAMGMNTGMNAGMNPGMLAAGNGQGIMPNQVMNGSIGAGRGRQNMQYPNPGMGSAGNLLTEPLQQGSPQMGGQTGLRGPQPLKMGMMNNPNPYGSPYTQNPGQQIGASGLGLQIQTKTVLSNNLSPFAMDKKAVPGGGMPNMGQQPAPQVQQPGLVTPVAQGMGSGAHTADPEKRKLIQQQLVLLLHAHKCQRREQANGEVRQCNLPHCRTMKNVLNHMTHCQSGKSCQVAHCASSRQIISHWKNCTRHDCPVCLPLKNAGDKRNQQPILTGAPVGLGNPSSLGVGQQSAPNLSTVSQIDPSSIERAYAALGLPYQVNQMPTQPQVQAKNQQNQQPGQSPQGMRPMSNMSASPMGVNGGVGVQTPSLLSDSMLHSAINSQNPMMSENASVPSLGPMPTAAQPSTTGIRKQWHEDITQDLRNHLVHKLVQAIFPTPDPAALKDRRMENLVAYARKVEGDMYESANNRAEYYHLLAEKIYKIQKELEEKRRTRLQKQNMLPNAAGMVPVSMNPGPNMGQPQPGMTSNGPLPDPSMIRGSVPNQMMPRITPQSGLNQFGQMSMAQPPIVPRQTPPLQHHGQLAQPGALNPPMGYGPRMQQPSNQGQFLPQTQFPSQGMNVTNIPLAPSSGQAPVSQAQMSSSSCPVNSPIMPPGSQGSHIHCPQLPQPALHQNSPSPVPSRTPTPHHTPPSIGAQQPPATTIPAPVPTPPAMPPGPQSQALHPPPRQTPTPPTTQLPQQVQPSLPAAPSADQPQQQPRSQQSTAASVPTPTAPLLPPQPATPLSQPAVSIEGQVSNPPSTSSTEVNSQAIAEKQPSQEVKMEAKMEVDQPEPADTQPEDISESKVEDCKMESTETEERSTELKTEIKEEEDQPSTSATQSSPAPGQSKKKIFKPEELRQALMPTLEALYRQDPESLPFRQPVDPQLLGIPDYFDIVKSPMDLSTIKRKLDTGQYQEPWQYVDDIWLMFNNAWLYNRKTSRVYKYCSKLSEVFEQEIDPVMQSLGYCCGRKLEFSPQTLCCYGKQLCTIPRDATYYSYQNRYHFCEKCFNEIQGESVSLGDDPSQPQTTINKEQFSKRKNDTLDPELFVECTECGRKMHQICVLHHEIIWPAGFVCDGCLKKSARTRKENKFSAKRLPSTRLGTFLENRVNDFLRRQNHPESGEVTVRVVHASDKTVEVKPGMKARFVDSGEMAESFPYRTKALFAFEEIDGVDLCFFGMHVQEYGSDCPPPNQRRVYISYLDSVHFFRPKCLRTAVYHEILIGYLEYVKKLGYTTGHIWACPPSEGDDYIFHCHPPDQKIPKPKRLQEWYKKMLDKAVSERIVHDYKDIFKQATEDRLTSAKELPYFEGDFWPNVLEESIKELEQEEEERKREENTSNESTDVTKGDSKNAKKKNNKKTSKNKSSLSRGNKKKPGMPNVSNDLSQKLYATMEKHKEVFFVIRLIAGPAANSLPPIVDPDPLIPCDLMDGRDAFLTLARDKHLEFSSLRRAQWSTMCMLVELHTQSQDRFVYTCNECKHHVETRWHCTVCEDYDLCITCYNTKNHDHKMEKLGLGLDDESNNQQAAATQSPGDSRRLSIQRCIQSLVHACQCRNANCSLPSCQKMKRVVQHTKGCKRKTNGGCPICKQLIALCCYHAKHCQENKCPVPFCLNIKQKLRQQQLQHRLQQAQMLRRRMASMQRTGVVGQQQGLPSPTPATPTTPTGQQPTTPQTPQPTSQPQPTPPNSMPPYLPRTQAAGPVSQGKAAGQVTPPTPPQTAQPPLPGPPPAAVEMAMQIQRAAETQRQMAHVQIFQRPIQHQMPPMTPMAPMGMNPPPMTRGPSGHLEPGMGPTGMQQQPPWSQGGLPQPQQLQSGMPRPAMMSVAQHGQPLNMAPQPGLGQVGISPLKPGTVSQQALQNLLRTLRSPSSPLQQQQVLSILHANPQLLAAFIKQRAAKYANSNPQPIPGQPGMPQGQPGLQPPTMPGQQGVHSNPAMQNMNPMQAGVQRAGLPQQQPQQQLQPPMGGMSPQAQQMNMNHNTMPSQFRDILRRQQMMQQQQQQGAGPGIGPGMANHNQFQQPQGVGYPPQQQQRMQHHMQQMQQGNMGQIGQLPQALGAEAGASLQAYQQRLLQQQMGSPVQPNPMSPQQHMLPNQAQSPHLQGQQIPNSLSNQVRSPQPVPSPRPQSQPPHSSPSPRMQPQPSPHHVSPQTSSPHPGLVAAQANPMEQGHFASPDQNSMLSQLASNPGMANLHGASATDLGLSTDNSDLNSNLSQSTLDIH

What was measured:
[1] = molecular target: HOXB13 (as in the Co-IP assays of Figures S3j and S4c; construct not told) (human) (UniProt Q92826); test: co-IP; Co-IP of HOXB13 and HSC70 (Figure S4c), cells with overexpression of HBXIP; cells, constructs and bait not given
[2] = molecular target: HOXB13 (as in the Co-IP assays of Figures S3j and S4c; construct not told) (human) (UniProt Q92826); test: co-IP; Co-IP of HOXB13 and HSC70 (Figure S4c), without overexpression of HBXIP; cells, constructs and bait not given
[3] = molecular target: HOXB13 (as in the Co-IP assays of Figures S3j and S4c; construct not told) (human) (UniProt Q92826); test: co-IP; Co-IP of p300 and HOXB13 (Figure S3j); cells, constructs and bait not given

**Q.** For “heat shock 70 kDa protein 8 (HSC70) (from UniProt P11142 1-646)”, which binding [1] is on record?
**A.** Its binding is “no binding (condition: with overexpression of HBXIP)”.

**Q.** And the binding [2]?
**A.** The binding was “binds”.

**Q.** Which binding [3] does the source give for “acetylase p300 (from UniProt Q09472 1-2414) (enzyme)” here?
**A.** The binding was “binds”.
